Measured values as given in paper PMC2442654.
These are yes or no findings as the source states them, for the method shown.

Molecular target: recombinant mouse full-length prion protein, MoPrP (23-231), unexposed (mouse) (UniProt P04925)
Assay: Rayleigh light scattering (photo-aggregation); both purified

With “recombinant mouse full-length prion protein, MoPrP (23-231), unexposed (from UniProt P04925 23-231)” the binding was “no binding (condition: in 3 M urea and 1 M GdmCl)”.
